No constants are given. Whether binding was seen depends on the method and setting. Binding seen in cells or lysates may run through a third protein. Some entries that bind do so weakly or less than the wild type.
Target: T1, transforming growth factor β-activated kinase 1 (TAK1) (human (endogenous in HTR8/SVneo)) (UniProt O43318)
T1 sequence: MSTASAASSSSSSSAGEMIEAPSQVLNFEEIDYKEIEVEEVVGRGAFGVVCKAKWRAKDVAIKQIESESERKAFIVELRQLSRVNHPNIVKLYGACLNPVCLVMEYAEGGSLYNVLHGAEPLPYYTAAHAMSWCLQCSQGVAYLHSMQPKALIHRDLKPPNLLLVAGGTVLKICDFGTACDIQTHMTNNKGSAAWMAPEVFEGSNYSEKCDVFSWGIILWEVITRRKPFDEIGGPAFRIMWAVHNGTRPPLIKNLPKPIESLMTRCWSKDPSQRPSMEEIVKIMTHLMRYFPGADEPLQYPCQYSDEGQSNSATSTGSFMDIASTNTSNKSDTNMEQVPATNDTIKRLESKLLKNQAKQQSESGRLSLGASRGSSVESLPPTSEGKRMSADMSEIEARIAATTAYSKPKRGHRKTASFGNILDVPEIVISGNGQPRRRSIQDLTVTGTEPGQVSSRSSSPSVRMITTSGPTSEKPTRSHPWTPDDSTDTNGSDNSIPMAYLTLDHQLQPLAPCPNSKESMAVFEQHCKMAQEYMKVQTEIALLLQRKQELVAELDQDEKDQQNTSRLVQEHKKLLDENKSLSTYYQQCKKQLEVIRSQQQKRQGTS
Assay: co-IP; endogenous proteins in HTR8/SVneo cell lysate (IP lysis buffer); supernatant incubated with the indicated antibodies at 4 °C overnight, protein A/G magnetic beads 1 h at room temperature (Pierce Classic Magnetic IP/Co-IP Kit), western blot

Sequences of proteins named here, by UniProt entry; tags and fusion partners are left off. Residues count along the entry.
UniProt P46934: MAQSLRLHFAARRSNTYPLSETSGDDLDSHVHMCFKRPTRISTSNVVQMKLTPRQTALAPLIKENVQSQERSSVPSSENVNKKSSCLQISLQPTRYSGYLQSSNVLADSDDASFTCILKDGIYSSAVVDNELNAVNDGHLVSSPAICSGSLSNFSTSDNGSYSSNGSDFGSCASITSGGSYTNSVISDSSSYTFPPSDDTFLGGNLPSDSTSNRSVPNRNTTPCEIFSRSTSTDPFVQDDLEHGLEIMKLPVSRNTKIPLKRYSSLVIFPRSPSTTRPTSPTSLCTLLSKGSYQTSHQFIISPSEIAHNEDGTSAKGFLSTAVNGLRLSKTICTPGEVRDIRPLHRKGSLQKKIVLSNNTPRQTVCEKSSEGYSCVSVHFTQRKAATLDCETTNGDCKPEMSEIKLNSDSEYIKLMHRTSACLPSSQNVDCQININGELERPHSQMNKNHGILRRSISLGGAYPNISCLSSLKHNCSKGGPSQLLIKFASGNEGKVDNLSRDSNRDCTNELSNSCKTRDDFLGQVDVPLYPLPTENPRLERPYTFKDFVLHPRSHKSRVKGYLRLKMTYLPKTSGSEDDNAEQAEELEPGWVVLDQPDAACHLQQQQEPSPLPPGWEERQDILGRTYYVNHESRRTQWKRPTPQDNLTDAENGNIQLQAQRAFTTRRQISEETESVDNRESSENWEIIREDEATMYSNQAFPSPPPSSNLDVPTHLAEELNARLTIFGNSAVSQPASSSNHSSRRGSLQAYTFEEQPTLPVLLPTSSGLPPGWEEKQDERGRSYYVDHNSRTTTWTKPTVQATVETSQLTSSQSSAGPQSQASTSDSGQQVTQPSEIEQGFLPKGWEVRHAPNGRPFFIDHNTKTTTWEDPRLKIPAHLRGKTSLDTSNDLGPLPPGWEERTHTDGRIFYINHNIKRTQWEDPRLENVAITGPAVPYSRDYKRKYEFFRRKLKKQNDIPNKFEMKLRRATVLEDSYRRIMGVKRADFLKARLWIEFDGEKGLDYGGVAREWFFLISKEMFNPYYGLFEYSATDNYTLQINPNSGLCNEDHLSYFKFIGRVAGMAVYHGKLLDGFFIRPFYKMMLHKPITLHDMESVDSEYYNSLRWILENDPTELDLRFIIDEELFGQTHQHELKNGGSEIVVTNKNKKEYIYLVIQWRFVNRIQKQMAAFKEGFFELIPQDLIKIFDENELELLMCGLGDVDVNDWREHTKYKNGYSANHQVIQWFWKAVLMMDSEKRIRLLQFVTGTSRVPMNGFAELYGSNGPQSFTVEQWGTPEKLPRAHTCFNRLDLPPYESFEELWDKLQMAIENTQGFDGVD
UniProt P07996, residues 19-1170: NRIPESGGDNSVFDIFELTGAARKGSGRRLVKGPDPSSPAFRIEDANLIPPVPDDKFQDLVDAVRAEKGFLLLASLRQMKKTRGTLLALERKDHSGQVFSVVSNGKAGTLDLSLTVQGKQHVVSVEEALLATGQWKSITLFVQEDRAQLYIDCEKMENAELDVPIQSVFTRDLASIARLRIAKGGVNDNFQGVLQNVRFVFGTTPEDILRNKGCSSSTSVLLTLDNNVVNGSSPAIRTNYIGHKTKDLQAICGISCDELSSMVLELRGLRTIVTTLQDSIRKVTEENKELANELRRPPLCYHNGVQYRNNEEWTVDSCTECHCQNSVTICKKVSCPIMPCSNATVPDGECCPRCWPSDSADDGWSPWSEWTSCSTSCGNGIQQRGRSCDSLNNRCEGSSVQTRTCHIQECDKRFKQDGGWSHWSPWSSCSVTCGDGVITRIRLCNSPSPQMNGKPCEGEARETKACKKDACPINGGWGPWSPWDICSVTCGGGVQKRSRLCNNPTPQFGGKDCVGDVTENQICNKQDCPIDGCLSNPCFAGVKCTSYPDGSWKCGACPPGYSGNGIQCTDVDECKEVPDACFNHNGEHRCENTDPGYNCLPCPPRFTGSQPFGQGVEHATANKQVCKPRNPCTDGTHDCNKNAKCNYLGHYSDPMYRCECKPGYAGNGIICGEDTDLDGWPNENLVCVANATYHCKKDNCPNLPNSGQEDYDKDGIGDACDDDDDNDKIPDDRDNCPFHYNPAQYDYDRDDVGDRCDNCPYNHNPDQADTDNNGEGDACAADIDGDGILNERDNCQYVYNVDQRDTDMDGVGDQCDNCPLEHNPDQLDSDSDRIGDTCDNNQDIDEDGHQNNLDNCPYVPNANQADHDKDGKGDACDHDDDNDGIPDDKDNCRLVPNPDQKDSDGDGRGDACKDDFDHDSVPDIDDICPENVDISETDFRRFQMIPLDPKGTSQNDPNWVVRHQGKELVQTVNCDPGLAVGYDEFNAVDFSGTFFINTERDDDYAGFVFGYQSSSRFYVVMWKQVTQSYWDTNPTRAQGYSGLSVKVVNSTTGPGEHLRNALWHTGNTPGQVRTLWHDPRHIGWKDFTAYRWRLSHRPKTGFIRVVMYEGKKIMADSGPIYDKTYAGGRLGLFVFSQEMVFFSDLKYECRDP

neuronal precursor cell-expressed developmentally down-regulated 4 (NEDD4) (from UniProt P46934 1-1319) (enzyme)
binding: binds

thrombospondin-1 (THBS1) (from UniProt P07996 19-1170)
binding: binds

Source: PMC11151050
